The exact form of at least one protein or probe is not confirmed. For some assays here: At least one verdict rests on a figure or table, not on a statement of the authors.
Assays:
[1] = system: TaXPD E542C (disulphide trapping) E524C (Thermoplasma acidophilum); test: disulphide trapping, mass spectrometry; settings: covalent, 5'-alkanethiol (HO-(CH2)6-S-S-(CH2)6-) for disulphide link, trapping: 20 mM Tris-HCl pH 8.3-8.5, 50 mM NaCl, recombinant protein, protein details: N-term 6His removed by TEV
[2] = system: TaXPD E542C (disulphide trapping) E524C (Thermoplasma acidophilum); test: disulphide trapping; settings: covalent, 5'-alkanethiol (HO-(CH2)6-S-S-(CH2)6-) for disulphide link, trapping: 20 mM Tris-HCl pH 8.3-8.5, 50 mM NaCl, 4 C overnight, anaerobic, recombinant protein, protein details: N-term 6His removed by TEV
[3] = single-stranded DNA, letters put together from the description

## TACGACGGC [9mer]
[1]; no AMPPNP/MgCl2, 4 C overnight …, single-stranded DNA, letters put together from the description
  binding result: binds

## TACGACGGCCA [11mer]
[2]; [3]
  binding result: binds

## TACGAGAGAGAGAGAACCGAGCATTTGCTCG [crosslinking hairpin DNA]
[1]; 4 C overnight, anaerobic, folded or branched DNA
  binding result: binds

## TACGACGGCC [10mer]
[2]; [3]
  binding result: binds

## TACGACGGCCAGTGC [15mer]
[2]; single-stranded …
  binding result: binds
